# Assay results published in the supplement of paper PMC10849652.
# Amino acid sequences for entries named in this document (tags omitted). A change or cut given only in a name is not applied to a line headed by its entry.
# UniProt Q99848: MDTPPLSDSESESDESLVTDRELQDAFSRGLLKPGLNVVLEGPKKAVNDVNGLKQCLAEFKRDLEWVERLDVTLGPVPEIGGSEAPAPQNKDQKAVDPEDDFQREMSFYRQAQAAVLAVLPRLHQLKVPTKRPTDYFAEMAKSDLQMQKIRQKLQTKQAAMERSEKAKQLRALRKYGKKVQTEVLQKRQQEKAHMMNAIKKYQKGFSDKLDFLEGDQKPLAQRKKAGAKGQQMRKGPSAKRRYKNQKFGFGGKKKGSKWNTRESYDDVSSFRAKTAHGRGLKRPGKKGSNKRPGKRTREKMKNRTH
# UniProt Q9H3Z4: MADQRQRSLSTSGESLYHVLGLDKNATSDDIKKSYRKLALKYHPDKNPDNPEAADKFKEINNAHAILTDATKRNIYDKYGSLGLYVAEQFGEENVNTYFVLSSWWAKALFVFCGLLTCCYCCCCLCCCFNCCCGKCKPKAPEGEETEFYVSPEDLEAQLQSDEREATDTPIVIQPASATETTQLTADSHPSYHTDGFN
# UniProt P50570: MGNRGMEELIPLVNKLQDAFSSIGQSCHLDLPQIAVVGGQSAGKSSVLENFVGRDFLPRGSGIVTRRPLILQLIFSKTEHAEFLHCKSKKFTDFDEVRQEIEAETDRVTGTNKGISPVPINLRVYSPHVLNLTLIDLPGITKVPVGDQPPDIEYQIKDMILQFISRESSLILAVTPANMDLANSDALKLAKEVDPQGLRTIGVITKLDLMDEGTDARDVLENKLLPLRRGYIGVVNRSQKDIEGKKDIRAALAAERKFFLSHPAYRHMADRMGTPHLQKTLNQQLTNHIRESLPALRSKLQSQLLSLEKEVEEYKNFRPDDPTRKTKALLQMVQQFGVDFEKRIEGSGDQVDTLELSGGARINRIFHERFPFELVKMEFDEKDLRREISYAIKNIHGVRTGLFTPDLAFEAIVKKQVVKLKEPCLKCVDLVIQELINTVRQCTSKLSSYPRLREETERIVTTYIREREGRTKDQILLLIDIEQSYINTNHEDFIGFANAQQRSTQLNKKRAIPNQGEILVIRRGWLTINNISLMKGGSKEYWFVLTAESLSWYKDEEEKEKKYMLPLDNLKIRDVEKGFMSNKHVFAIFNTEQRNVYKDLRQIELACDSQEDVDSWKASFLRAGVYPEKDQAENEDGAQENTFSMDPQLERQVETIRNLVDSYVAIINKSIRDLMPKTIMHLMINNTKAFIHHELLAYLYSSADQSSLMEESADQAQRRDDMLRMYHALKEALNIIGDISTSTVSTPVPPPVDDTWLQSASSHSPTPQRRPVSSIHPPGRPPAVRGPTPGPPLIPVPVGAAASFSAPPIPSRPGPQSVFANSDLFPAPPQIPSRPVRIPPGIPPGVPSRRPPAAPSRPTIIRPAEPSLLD
# UniProt Q96G46: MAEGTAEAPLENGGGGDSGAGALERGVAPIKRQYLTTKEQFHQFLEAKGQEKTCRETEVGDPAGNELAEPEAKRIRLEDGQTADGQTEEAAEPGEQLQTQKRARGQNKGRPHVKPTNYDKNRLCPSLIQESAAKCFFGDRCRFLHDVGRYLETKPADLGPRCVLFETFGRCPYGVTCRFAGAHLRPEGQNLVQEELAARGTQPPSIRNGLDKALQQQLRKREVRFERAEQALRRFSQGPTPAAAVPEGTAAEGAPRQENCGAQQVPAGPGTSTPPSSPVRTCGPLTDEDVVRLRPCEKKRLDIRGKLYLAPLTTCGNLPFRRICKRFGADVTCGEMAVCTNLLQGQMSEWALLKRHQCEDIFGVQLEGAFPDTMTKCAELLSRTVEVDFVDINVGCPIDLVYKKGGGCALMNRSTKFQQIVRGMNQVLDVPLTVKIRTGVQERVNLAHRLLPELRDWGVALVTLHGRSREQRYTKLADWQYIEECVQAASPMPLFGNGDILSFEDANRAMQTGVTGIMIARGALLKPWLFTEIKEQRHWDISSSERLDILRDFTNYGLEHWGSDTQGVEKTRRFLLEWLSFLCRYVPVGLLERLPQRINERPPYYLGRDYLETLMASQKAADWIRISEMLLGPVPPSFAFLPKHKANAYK
# UniProt Q6P3W2: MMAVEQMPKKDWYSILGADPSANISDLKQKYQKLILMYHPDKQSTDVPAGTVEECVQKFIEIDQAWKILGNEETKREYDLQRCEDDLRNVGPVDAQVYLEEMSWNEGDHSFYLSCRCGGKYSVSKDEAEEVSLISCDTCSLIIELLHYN
# UniProt Q8TBM8: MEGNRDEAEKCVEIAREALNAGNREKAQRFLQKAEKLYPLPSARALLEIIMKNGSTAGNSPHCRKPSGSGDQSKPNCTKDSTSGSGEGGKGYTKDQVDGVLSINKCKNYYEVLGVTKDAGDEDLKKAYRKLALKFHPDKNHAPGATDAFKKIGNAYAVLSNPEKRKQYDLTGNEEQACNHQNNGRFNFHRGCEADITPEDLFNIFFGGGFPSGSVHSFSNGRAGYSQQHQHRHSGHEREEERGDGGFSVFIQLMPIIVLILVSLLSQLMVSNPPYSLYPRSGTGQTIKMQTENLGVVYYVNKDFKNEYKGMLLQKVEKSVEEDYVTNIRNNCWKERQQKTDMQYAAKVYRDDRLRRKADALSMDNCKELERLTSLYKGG
# UniProt Q4LDG9: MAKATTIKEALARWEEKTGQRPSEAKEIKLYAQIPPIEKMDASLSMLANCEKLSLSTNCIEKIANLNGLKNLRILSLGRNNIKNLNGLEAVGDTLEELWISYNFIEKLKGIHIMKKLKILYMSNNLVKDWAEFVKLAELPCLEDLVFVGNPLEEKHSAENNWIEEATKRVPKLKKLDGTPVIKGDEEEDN
# UniProt Q96EV8: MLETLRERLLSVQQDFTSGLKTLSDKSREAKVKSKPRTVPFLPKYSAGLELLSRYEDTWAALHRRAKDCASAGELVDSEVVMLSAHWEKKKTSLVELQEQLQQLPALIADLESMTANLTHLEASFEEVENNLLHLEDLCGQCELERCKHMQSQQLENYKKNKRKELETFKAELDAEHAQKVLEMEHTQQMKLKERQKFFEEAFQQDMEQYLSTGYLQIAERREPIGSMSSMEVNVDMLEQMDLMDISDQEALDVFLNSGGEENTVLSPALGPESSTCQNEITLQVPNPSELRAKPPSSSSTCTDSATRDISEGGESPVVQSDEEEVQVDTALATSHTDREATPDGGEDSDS
# UniProt Q9NX74: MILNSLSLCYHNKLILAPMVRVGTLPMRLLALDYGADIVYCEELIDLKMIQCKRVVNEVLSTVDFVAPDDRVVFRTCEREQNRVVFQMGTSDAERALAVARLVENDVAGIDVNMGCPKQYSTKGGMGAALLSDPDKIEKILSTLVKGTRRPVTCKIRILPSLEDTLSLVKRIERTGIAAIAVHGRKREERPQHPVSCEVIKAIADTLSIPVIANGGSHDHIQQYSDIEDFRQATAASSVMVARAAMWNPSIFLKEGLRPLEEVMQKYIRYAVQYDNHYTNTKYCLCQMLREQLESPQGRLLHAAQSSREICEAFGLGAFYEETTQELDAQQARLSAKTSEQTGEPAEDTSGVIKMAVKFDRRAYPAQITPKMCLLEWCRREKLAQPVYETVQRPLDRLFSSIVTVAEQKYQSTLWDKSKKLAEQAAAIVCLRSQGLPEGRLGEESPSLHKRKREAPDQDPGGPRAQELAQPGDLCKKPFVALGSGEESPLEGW
# UniProt Q8NF50: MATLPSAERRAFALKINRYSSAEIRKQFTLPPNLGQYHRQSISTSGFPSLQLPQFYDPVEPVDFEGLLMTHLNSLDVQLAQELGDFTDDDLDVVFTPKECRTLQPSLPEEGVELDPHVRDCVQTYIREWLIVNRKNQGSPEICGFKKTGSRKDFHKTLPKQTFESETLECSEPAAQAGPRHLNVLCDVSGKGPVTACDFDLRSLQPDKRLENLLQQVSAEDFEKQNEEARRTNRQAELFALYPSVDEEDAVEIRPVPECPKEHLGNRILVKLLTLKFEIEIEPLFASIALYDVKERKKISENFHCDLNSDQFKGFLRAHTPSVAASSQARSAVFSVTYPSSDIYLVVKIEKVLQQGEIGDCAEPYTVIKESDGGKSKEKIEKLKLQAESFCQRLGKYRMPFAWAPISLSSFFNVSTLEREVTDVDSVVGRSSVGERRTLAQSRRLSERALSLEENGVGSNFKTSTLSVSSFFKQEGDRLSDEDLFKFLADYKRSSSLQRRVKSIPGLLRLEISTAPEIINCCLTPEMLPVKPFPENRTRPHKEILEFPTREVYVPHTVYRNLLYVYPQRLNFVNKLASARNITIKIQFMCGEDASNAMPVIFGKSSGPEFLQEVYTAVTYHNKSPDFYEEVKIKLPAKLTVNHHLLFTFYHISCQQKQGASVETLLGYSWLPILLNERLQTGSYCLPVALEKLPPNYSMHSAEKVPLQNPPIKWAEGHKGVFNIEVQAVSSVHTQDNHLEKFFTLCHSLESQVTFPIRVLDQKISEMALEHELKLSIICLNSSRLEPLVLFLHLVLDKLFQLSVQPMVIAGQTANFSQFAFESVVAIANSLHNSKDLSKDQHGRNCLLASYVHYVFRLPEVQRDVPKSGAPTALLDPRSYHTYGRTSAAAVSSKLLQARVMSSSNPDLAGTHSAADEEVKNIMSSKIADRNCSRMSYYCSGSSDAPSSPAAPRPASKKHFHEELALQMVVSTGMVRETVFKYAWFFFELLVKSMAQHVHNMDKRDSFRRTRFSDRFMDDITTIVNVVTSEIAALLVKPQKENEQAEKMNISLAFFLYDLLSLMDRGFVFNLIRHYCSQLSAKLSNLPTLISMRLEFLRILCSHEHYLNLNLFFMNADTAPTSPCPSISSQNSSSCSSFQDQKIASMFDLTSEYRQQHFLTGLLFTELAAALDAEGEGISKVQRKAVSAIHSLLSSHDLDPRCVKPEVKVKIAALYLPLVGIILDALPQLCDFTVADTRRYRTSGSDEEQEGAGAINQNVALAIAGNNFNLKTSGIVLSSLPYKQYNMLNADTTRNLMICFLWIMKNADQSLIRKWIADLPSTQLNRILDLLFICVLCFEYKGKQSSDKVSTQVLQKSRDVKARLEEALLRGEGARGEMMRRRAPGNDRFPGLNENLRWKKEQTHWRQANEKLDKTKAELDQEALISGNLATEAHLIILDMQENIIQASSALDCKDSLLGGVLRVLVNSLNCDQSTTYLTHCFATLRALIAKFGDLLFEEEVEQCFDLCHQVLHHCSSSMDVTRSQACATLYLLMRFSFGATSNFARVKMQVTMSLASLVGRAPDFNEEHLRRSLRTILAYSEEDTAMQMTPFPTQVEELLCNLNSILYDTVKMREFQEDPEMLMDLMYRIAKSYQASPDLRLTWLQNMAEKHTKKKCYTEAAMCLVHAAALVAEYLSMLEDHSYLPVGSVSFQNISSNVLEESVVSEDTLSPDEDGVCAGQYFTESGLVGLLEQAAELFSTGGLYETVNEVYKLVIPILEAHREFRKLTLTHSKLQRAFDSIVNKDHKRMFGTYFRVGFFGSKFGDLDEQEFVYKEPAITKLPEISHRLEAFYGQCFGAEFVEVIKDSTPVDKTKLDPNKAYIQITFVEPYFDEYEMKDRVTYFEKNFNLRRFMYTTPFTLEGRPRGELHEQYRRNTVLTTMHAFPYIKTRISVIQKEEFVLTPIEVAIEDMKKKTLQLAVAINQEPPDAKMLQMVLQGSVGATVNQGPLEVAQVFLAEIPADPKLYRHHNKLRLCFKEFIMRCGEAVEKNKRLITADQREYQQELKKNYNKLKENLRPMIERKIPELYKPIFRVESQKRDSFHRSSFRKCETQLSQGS
# Some of the results follow.
# Tests used:
# Experiment in all cases: log2 fold change, soluble protein after heating vs DMSO (PISA); higher = thermal stabilisation; K562 cells, 10 uM, 30 min; active = over 0.2 and 3.5 SD of the protein, either way, in both replicates (recomputed)
# [1] = compound: CN1CCN(CCOc2cc(OC3CCOCC3)c3c(Nc4c(Cl)ccc5c4OCO5)ncnc3c2)CC1 [saracatinib]
# Procedure, shortened: (§1)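 Soluble protein was quantified by TMTpro 16plex LC-MS/MS after channel sums were equalised. It was obtained as the supernatant after 21,000xg for 90 min from pooled aliquots of K562 cells (2×10^6 cells/mL, 10 μM compound, 30 min) heated for 3 min across 48°C-58°C and extracted in PBS with 0.5% NP-40 at 4°C. Thermal stability values are relative to control samples and come from duplicates. They are given as log2 fold changes.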
# [2] = compound: CN1CCN(c2nc(C3=C(c4c[nH]c5ccccc45)C(=O)NC3=O)c3ccccc3n2)CC1 [sotrastaurin]
# Procedure, shortened: as §1
# [3] = compound: CN1CCc2c(c3ccccc3n2Cc2ccc(C(=O)NO)cc2)C1 [Tubastatin A]
# Procedure, shortened: as §1
# [4] = compound: CNC(=O)C1=CC=CC=C1NC2=NC(=NC=C2Cl)NC3=C(C=C(C=C3)N4CCOCC4)OC
# Procedure, shortened: as §1
# [5] = compound: CNC(=O)c1ccc(Nc2ncc(C(F)(F)F)c(NCc3nccnc3N(C)S(C)(=O)=O)n2)cc1 [defactinib]
# Procedure, shortened: as §1
# [6] = compound: CNCc1ccc(-c2[nH]c3cc(F)cc4c3c2CCNC4=O)cc1 [rucaparib]
# Procedure, shortened: as §1
# [7] = compound: CNc1nc(-c2ccc3c(N)n[nH]c3c2)cc(N2C[C@@H](C(=O)NC3CCCCC3)CC[C@H]2C)n1
# Procedure, shortened: as §1
# [8] = compound: COC(=O)N[C@@H](C)CNc1nccc(-c2cn(C(C)C)nc2-c2cc(Cl)cc(NS(C)(=O)=O)c2F)n1 [encorafenib]
# Procedure, shortened: as §1
# [9] = compound: COC(=O)[C@H](CCSC)NC(=O)C1=C(C=C(C=C1)NC[C@H](CS)N)C2=CC=CC=C2
# Procedure, shortened: as §1
# [10] = compound: COC1=CC=C(C=C1)CN2C=CC3=C2C=C(C=C3)C(=O)NO
# Procedure, shortened: as §1
# [11] = compound: CON(C)C(=O)N1N=C(c2cc(F)ccc2F)S[C@@]1(CCCN)c1ccccc1 [filanesib]
# Procedure, shortened: as §1
# [12] = compound: CO[C@H]1C[C@@H]2CC[C@@H](C)[C@@](O)(O2)C(=O)C(=O)N2CCCC[C@H]2C(=O)O[C@H]([C@H](C)C[C@@H]2CC[C@H](n3cnnn3)[C@H](OC)C2)CC(=O)[C@H](C)/C=C(\C)[C@@H](O)[C@@H](OC)C(=O)[C@H](C)C[C@H](C)/C=C/C=C/C=C/1C [zotarolimus]
# Procedure, shortened: as §1
# [13] = compound: COc1cc(C(=O)O)ccc1NC(=O)[C@@H]1N[C@@H](CC(C)(C)C)[C@](C#N)(c2ccc(Cl)cc2F)[C@H]1c1cccc(Cl)c1F [idasanutlin]
# Procedure, shortened: as §1
# [14] = compound: COc1cc(Nc2ncc3c(n2)-c2ccc(Cl)cc2C(c2c(F)cccc2OC)=NC3)ccc1C(=O)O [alisertib]
# Procedure, shortened: as §1
# [15] = compound: COc1cc2nc(-c3cc(F)ccc3O)nc(N[C@@H]3CNC[C@H]3C(C)(C)O)c2cc1OC
# Procedure, shortened: as §1
# [16] = compound: COc1cc2ncnc(Nc3ccc(F)c(Cl)c3)c2cc1OCCCN1CCOCC1 [gefitinib]
# Procedure, shortened: as §1
# [17] = compound: COc1cccc2cc(-c3nc([C@H]4CC[C@H](C(=O)O)CC4)n4ncnc(N)c34)[nH]c12
# Procedure, shortened: as §1
# [18] = compound: CS(=O)(=O)CCNCc1ccc(-c2ccc3ncnc(Nc4ccc(OCc5cccc(F)c5)c(Cl)c4)c3c2)o1 [lapatinib]
# Procedure, shortened: as §1
# [19] = compound: CS(=O)(=O)N1CCN(Cc2cc3nc(-c4cccc5[nH]ncc45)nc(N4CCOCC4)c3s2)CC1 [pictilisib]
# Procedure, shortened: as §1
# [20] = compound: CN1CC[C@H](c2c(O)cc(O)c3c(=O)cc(-c4ccccc4Cl)oc23)[C@H](O)C1 [alvocidib]
# Procedure, shortened: as §1
Target,log2 fold change [1],log2 fold change [2],log2 fold change [3],log2 fold change [4],log2 fold change [5],log2 fold change [6],log2 fold change [7],log2 fold change [8],log2 fold change [9],log2 fold change [10],log2 fold change [11],log2 fold change [12],log2 fold change [13],log2 fold change [14],log2 fold change [15],log2 fold change [16],log2 fold change [17],log2 fold change [18],log2 fold change [19],log2 fold change [20]
EBNA1BP2 (UniProt Q99848),inactive: -0.081,inactive: -0.138,inactive: 0.34,inactive: -0.047,inactive: 0.512,inactive: 0.23,inactive: 0.142,inactive: 0.13,inactive: 0.086,inactive: -0.054,inactive: 0.686,inactive: 0.069,inactive: 0.283,inactive: -0.172,inactive: -0.095,inactive: -0.01,inactive: -0.216,inactive: 0.153,inactive: -0.069,
DNAJC5 (UniProt Q9H3Z4),inactive: 0.112,inactive: 0.083,inactive: -0.07,inactive: 0.019,inactive: 0.034,inactive: 0.016,inactive: 0.039,inactive: -0.022,inactive: -0.022,inactive: 0.01,inactive: -0.011,,inactive: 0.076,inactive: 0.026,inactive: 0.097,inactive: 0.036,inactive: 0.042,inactive: -0.056,inactive: -0.032,
DNM2 isoform 4 (UniProt P50570),inactive: -0.126,inactive: -0.024,,inactive: -0.088,,inactive: -0.268,inactive: -0.235,inactive: 0.107,,inactive: 0.455,inactive: 0.021,inactive: 0.273,,inactive: 0.316,,inactive: -0.013,inactive: -0.272,,inactive: -0.123,
DNAJB14 (UniProt H7C494),inactive: 0.193,,,,inactive: 0.028,,inactive: -0.116,,inactive: 0.079,inactive: -0.182,,,,inactive: 0,inactive: 0.014,inactive: -0.106,inactive: -0.109,inactive: -0.032,inactive: -0.038,
DNPEP (UniProt C9JBE1),inactive: -0.02,inactive: 0.035,inactive: -0.381,inactive: -0.175,inactive: 0.19,,inactive: -0.152,,inactive: 0.053,inactive: -0.296,inactive: 0.123,,,inactive: -0.112,inactive: 0.273,,inactive: 0.078,inactive: -0.182,inactive: 0.208,
DUS3L (UniProt Q96G46),inactive: 0.02,inactive: -0.155,inactive: -0.028,inactive: 0.022,inactive: -0.148,inactive: 0.204,inactive: -0.033,inactive: 0.016,inactive: 0.003,inactive: 0.069,inactive: 0.018,inactive: 0.001,inactive: 0.011,inactive: -0.071,inactive: 0.01,inactive: 0.02,inactive: 0.035,inactive: -0.037,inactive: -0.181,
DNAJC24 (UniProt Q6P3W2),inactive: 0.185,inactive: -0.081,inactive: -0.094,inactive: -0.033,inactive: 0.116,inactive: 0.059,active: -0.351,inactive: 0.038,inactive: 0.099,inactive: -0.06,inactive: 0.199,inactive: 0.004,,inactive: 0.045,inactive: -0.111,inactive: 0.018,inactive: -0.112,inactive: 0.034,,
DNAJB14 (UniProt Q8TBM8),,inactive: -0.024,inactive: 0.038,inactive: -0.167,inactive: 0.001,inactive: -0.023,,inactive: -0.093,inactive: -0.078,inactive: -0.056,inactive: 0.014,inactive: 0.046,inactive: 0.08,inactive: 0.117,inactive: -0.08,inactive: 0.125,inactive: 0.304,inactive: 0.014,inactive: 0.084,inactive: -0.074
DNAL1 (UniProt Q4LDG9),inactive: -0.081,,,,inactive: -0.14,,inactive: 0.062,,inactive: -0.13,inactive: 0.009,,inactive: 0.024,inactive: -0.098,,,,,,,
DTNBP1 (UniProt Q96EV8),inactive: -0.072,inactive: 0.026,inactive: 0.023,inactive: 0,inactive: -0.054,inactive: -0.015,inactive: 0.005,inactive: 0.014,inactive: 0.054,inactive: -0.033,inactive: -0.115,inactive: -0.009,inactive: -0.068,inactive: -0.003,inactive: 0.004,inactive: 0.018,inactive: 0.044,inactive: -0.041,inactive: 0.073,
DUS2 (UniProt Q9NX74),inactive: 0.112,inactive: -0.098,inactive: 0.041,inactive: -0.048,inactive: -0.093,inactive: 0.042,inactive: -0.113,inactive: 0.09,inactive: -0.02,inactive: -0.02,inactive: -0.014,inactive: -0.041,inactive: -0.004,inactive: -0.075,inactive: 0.059,inactive: 0.04,inactive: -0.11,inactive: 0.043,inactive: -0.128,
DOCK8 (UniProt Q8NF50),inactive: -0.241,inactive: -0.398,inactive: 0.166,inactive: -0.163,inactive: 0.242,inactive: 0.044,inactive: -0.06,inactive: -0.079,inactive: -0.154,inactive: 0.475,inactive: 0.464,inactive: 0.083,inactive: 0.217,inactive: -0.029,,inactive: 0.006,inactive: -0.428,,inactive: -0.337,

# A few values from above:
# Entry of DNAJB14 (UniProt H7C494) under log2 fold change [15]: inactive: 0.014
# Entry of DNAJC5 (UniProt Q9H3Z4) under log2 fold change [11]: inactive: -0.011
